In this experiment the target is EED (mouse (endogenous in SCIET27)) (UniProt Q921E6). Kind of experiment: co-IP; endogenous proteins in SCIET27 lysate (50 mM HEPES pH 7.6, 75 mM NaCl, 1 mM MgCl2, 1 mM EGTA, 1 mM EDTA, 1% NP-40); antibody to EED, EZH2 or α-tubulin or control IgG overnight at 4 °C, Dynabeads protein A; detection by western blot.

Sequences of proteins named here, by UniProt entry; tags and fusion partners are left off.
UniProt Q921E6: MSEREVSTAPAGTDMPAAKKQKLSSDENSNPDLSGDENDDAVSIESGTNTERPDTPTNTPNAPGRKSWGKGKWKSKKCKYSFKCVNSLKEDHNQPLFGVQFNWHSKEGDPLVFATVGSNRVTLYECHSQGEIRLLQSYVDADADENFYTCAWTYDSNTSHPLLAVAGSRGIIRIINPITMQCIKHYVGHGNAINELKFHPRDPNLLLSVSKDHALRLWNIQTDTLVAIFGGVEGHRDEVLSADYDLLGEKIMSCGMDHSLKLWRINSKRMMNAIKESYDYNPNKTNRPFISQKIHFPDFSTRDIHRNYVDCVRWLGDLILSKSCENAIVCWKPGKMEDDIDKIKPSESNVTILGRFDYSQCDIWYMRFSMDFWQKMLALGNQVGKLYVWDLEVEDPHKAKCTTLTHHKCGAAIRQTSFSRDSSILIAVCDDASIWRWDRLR
UniProt Q61188: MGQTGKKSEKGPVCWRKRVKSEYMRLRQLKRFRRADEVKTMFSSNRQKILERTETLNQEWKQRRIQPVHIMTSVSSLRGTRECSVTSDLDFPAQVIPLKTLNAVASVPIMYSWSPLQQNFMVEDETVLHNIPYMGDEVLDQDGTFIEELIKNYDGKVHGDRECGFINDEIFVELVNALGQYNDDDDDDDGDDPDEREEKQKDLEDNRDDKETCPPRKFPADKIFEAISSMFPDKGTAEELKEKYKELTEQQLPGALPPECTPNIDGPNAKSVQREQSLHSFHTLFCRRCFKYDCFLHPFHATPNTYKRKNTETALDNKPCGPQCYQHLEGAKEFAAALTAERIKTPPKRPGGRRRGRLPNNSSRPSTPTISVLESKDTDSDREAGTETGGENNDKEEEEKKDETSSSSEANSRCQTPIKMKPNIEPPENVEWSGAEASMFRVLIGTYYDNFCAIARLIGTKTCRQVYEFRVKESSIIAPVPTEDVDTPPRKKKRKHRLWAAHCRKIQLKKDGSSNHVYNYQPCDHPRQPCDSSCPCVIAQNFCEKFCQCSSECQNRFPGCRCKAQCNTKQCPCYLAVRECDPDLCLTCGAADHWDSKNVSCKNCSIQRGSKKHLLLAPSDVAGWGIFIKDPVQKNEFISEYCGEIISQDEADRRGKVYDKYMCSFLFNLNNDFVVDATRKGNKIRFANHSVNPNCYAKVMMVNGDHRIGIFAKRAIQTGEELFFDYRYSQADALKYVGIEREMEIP
UniProt Q80U70: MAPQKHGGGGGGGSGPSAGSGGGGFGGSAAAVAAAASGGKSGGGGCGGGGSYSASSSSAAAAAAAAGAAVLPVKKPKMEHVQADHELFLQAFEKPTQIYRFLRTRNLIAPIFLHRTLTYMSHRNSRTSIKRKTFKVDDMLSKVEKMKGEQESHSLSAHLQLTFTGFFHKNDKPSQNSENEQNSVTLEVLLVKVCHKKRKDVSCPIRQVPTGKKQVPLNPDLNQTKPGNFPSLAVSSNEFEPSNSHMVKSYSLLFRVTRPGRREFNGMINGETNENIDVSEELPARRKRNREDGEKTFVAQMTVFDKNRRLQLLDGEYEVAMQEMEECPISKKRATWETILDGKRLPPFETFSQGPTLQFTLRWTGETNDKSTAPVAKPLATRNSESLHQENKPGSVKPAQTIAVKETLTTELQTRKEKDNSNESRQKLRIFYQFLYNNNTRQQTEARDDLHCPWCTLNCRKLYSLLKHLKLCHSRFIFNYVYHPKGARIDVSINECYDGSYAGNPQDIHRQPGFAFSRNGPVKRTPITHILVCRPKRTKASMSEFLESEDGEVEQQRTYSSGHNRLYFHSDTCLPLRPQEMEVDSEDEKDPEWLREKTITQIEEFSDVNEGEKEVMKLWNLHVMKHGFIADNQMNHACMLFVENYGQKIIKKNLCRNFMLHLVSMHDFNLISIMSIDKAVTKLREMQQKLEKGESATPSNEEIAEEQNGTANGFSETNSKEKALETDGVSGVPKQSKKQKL

These are yes or no findings as the source states them, for the method shown. In cells and extracts the contact can be indirect. Some binding calls cover weakened binding; strength is not graded here.

On to EZH2 (from UniProt Q61188 1-746), for which the binding entry is recorded as “binds”.

Consider Suz12 (from UniProt Q80U70 1-741), for which the binding result was “binds”.
